Laboratory results: PubChem BioAssay AID1671190 (National Center for Advancing Translational Sciences (NCATS), 2021)
Out of some 580,000 compounds screened, about 6,100 (1.1%) were called active. The inconclusive results got no clear call from the source; some entries with a clear call stand among them for comparison. Calls come from the whole dose curve; as a rule, active = well fitted inhibition curve with a large enough effect; inconclusive = small, poorly fitted or top-dose-only effect, or another doubt; inactive = no such curve, though single readings can be large or run the other way. Potencies beside an inconclusive call are fits to weak or partial responses and may not hold up.
% is set by controls: 0 for no effect and ±100 for the full control effect; potency is the fitted concentration of half-maximal effect.

Amino acid sequences for entries named in this document (tags omitted). A change or cut given only in a name is not applied to a line headed by its entry.
UniProt P18054: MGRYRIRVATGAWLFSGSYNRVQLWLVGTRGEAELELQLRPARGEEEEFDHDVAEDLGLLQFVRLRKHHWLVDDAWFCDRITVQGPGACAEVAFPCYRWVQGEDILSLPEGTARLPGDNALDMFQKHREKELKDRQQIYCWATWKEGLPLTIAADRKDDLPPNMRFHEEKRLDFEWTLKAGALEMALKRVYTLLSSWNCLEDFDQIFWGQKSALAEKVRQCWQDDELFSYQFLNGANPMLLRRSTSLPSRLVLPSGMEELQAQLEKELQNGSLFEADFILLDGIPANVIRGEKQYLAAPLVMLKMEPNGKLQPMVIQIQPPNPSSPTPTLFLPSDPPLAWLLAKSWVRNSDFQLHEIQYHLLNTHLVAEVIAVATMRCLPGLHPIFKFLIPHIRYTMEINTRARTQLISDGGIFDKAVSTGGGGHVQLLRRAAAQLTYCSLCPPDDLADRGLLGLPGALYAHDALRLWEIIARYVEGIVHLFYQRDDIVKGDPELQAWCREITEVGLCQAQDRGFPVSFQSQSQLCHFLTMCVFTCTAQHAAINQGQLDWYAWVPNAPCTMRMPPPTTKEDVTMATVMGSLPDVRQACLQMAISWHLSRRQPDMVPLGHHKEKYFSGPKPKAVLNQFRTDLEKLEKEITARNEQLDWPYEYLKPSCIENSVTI

These compounds were tested against Polyunsaturated fatty acid lipoxygenase ALOX12 (Homo sapiens) (UniProt P18054) (assay: Primary qHTS assay for inhibitors of human arachidonate 12S-lipoxygenase (ALOX12): Round 2). Conditions: purified 12hLO, xylenol orange hydroperoxide absorbance; activity change, negative = inhibition: at 108 µM (top of the series) unless noted.
Procedure, shortened: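 Purified human 12hLO (150 nM final) in 25 mM Hepes, 0.01% Triton X-100, pH 7.0 was preincubated 15 min at room temperature with compound. Then 40 uM arachidonic acid was added, 30 min. Hydroperoxide was read by Fe-XO absorbance ratio 573/405 nm.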
For Cc1ccc(-n2c(SCC(=O)Nc3ccc(F)c(Cl)c3)nc3c(=O)[nH]cnc32)cc1, the Potency was inconclusive: 50.1 µM [inhibitor, partial curve, poor fit].
For CC(C)c1nc2n(n1)C1(CCCCC1)[C@@H]1CCCC[C@@H]1N2, the “activity change, negative = inhibition” value was inactive: -10.6%.
O=C1NC(c2cccs2)Nc2sc3c(c21)CCCC3 (stereo not given) was tested, and the Potency was inconclusive: 31.6 µM [inhibitor, partial curve, poor fit].
CCn1nc(C(=O)OC(C)C(=O)N2CCCc3ccccc32)c2ccccc2c1=O (stereo not given) was tested, and the Potency was inconclusive: 35.5 µM [inhibitor, partial curve, poor fit].
In the case of C=CCN(CC=C)C(=O)C1CCCN(C2CCN(C3Cc4ccccc4C3)CC2)C1 (stereo not given), the “activity change, negative = inhibition” value is reported as inactive: -3.73%.
For COc1ccc(C2(c3ccc(O)cc3O)CC(c3ccccc3Cl)NC(=S)N2)cc1 (stereo not given), the Potency was active: 17.8 µM.
CCCCN(CC)S(=O)(=O)c1ccc(C(=O)Nc2nnc(CSC)o2)cc1 was tested, and the “activity change, negative = inhibition” value was inactive: 0%.
For CCN(CC)CCN(C(=O)c1ccc2c(c1)OCCO2)c1nc2c(Cl)cccc2s1, the Potency was active: 35.5 µM.
CC(C)c1ccc(N(C(=O)c2snc(C(N)=O)c2N)C(C(=O)NCC2CCCO2)c2ccc(N(C)C)cc2)cc1 (stereo not given) was tested, and the “activity change, negative = inhibition” value was inactive: -16.7%.
In the case of CCOc1ccc(-n2c(CC)nc3c(cnn3-c3ccc(Cl)cc3)c2=O)cc1, the “activity change, negative = inhibition” value is reported as inactive: -10.3%.
In the case of CN(CC(=O)N1CCCC1)c1nc(-c2ccccc2)nc2ccccc12, the “activity change, negative = inhibition” value is reported as inactive: 12.7%.
With COc1c(Cl)cc(C(=O)N(Cc2ccc(C)o2)C2CCS(=O)(=O)C2)cc1Cl (stereo not given) the activity change, negative = inhibition was inconclusive: -30.7% [inhibitor].
CN1CCC(CNc2nccc(C3(c4ccccc4Cl)CCNCC3)n2)C1 (stereo not given) was tested, and the Potency was inconclusive: 20 µM [inhibitor, full curve].
In the case of COc1ccccc1CNC(=O)C(C)Sc1ccc(C)cc1 (stereo not given), the Potency is reported as inconclusive: 35.5 µM [inhibitor, single point].
With Cc1cc2nc3n(c(=O)c2n1CC(=O)Nc1cccc(C(C)C)c1)CCCC3 the Potency was inconclusive: 50.1 µM [inhibitor, partial curve].
In the case of O=C(Cn1c(=O)c2ccccc2n(CC(=O)Nc2ccc(F)cc2)c1=O)NCCc1ccccc1, the Potency is reported as inconclusive: 89.1 µM [inhibitor, single point].
For Cc1ccc2nc(CN3CCCC(CO)(CC4CC4)C3)cn2c1 (stereo not given), the “activity change, negative = inhibition” value was inactive: 34.7%.
In the case of CCN1CCN(c2oc(-c3ccc(OC)c(OC)c3)nc2C#N)CC1, the “activity change, negative = inhibition” value is reported as inactive: -0.953%.
In the case of COc1cc(CNc2ccccc2SC)ccc1O, the Potency is reported as inconclusive: 22.4 µM [inhibitor, partial curve, poor fit].
NC1CCC(n2cc(C(=O)NC3CCCN(c4ncccn4)C3)nn2)CC1 (stereo not given) was tested, and the Potency was inconclusive: 22.4 µM [inhibitor, full curve].
For CC(C)(C)C(=O)Nc1ccccc1C(=O)Nc1cc(Cl)ccc1Cl, the Potency was inconclusive: 1.58 µM [inhibitor, full curve, poor fit].
With Cc1ccnc(NCc2ccc(Cl)cc2)c1 the Potency was inconclusive: 15.8 µM [inhibitor, full curve, poor fit].
With CCOC(=O)C1(CC2CCCCO2)CCN(C(=O)Nc2cccc(SC)c2)CC1 (stereo not given) the “activity change, negative = inhibition” value was inactive: -7.55%.
In the case of CC(C)NC(=O)COC(=O)c1cc(=O)[nH]c2ccccc12, the “activity change, negative = inhibition” value is reported as inactive: 2.16%.
CCN(CC)c1ccc(NC(=O)Cn2cc3c(n2)CCCC3)c(C)c1 was tested, and the Potency was inconclusive: 112 µM [inhibitor, partial curve, poor fit].
In the case of COC1=C(Br)C(=O)c2nc(C)ccc2C1=O, the Potency is reported as inconclusive: 50.1 µM [inhibitor, partial curve, poor fit].
For O=C(COC(=O)c1ccccc1C(=O)c1ccc(-c2ccccc2)cc1)c1ccccc1, the “activity change, negative = inhibition” value was inactive: -4.11%.
For CC(=O)c1ccc(NC(=O)Cn2ccn3nc(-c4ccc(F)cc4)c(CO)c3c2=O)cc1, the “activity change, negative = inhibition” value was inactive: 45.8%.
In the case of CCc1ccc(NC(=O)CSc2nc3c([nH]c4ccccc43)c(=O)n2C)cc1, the Potency is reported as inconclusive: 141 µM [inhibitor, partial curve, poor fit].
CCCCN(CC)c1nc(-c2ccncc2)nc2ccccc12 was tested, and the Potency was inconclusive: 44.7 µM [inhibitor, partial curve, poor fit].
With Cc1cccc(C)c1OCCCN1CCC(C)CC1 the Potency was inconclusive: 0.251 µM [inhibitor, full curve, poor fit].
With COc1ccc(C(=O)Nc2ccccc2C(=O)NC(Cc2ccc(O)cc2)C(=O)NNC(=O)c2ccncc2)cc1 (stereo not given) the Potency was inconclusive: 50.1 µM [inhibitor, partial curve, poor fit].
In the case of Cc1ccc(/C([O-])=C(/C(=S)NCc2ccccc2)[n+]2ccccc2)cc1[N+](=O)[O-], the Potency is reported as inconclusive: 100 µM [inhibitor, single point].
In the case of COc1ccc(C(=O)N2CC3(CC(c4cccc([N+](=O)[O-])c4)=NO3)C[C@H]2C(=O)NCC(N)=O)cc1 (stereo not given in full), the Potency is reported as inconclusive: 25.1 µM [inhibitor, full curve, poor fit].
With CN(C)c1cccc(NC(=O)C2=NO[C@@H]3CN(Cc4ccc(F)cc4)C[C@H]23)c1 the Potency was inconclusive: 100 µM [inhibitor, partial curve].
For O=C1CC2(CCN(C(=O)c3ccc(C(F)(F)F)cc3)CC2)Oc2cc(Cl)ccc21, the Potency was inconclusive: 70.8 µM [inhibitor, partial curve, poor fit].
O=C1OC(c2ccccc2)/C(=C(/O)c2ccc(Cl)cc2)C1=O (stereo not given) was tested, and the “activity change, negative = inhibition” value was inactive: -25.1%.
In the case of O=C(/C=C/c1ccc(Br)o1)Nc1nccs1, the “activity change, negative = inhibition” value is reported as inactive: -2.98%.
For Cc1ccc(CNC(=O)C2CCCN(c3nn4cc(-c5ccc(C)cc5)nc4s3)C2)cc1 (stereo not given), the Potency was inconclusive: 126 µM [inhibitor, partial curve, poor fit].
In the case of O=[N+]([O-])c1cc(Cl)c(O)c2ncccc12, the Potency is reported as active: 5.62 µM.
OC(CN1CCOCC1)CN(c1ccccc1)c1ccccc1 (stereo not given) was tested, and the Potency was inconclusive: 6.31 µM [inhibitor, partial curve, poor fit].
With Cc1ccc(-n2c(=O)c3ccc(C(=O)NCc4ccccc4Cl)cc3n(Cc3cccc(F)c3)c2=O)cc1 the Potency was inconclusive: 100 µM [inhibitor, partial curve, poor fit].
OC1(c2ccccn2)COc2ccccc2O1 (stereo not given) was tested, and the Potency was inconclusive: 7.94 µM [inhibitor, partial curve, poor fit].
With COc1cccc(C2C3=C(CC(C)(C)CC3=O)Nc3cc4c(cc32)OCO4)c1OC (stereo not given) the Potency was inconclusive: 100 µM [inhibitor, single point].
With O=C(NC(=S)Nc1ncccn1)c1ccccc1Cl the Potency was inconclusive: 11.2 µM [inhibitor, partial curve, poor fit].
With CC1CCCCC1NC(=S)NC(=O)c1cccs1 (stereo not given) the Potency was active: 14.1 µM.
In the case of Cc1cc(C)n2nc(SCc3nnc(SCc4ccccc4)s3)nc2n1, the “activity change, negative = inhibition” value is reported as inactive: -7.54%.
With Cc1cc(-c2nc(-c3ccc4c(c3)OCO4)no2)n[nH]1 the Potency was inconclusive: 7.08 µM [inhibitor, partial curve, poor fit].
In the case of O=C(N[C@@H](Cc1c[nH]c2ccccc12)C(=O)O)c1ccccc1Cl, the Potency is reported as inconclusive: 35.5 µM [inhibitor, single point].
In the case of Brc1ccc(-c2noc3c2-c2nc(-c4ccccc4)sc2CC3)cc1, the Potency is reported as inconclusive: 22.4 µM [inhibitor, partial curve, poor fit].
For CC1(C)CC2CC(C)(CN2S(=O)(=O)c2ccc(F)cc2F)C1 (stereo not given), the Potency was inconclusive: 89.1 µM [inhibitor, single point].
For Cc1ccncc1C(=O)N1CC(c2nc(CCN(C)C(=O)C3CC3)no2)C1, the “activity change, negative = inhibition” value was inactive: 13.3%.
With Cc1nc(N2CCCCC2)sc1C(=O)c1ccc(SCCO)c([N+](=O)[O-])c1 the “activity change, negative = inhibition” value was inactive: -0.488%.
With O=C(Cn1ccc2ccccc21)NCc1ccccc1Cl the “activity change, negative = inhibition” value was inactive: -0.538%.
With Cc1c(C(=O)Nc2ccc3c(c2)OCCO3)sc2ncnc(N3CCCCC3C)c12 (stereo not given) the “activity change, negative = inhibition” value was inactive: -1.48%.
With O=C(O)c1ccccc1N/N=C/c1cc(Br)cc(Br)c1O the Potency was active: 44.7 µM.
With CCCCC(CC)CNC(=O)c1ccc(Cn2c(=O)[nH]c3cc(OC)c(OC)cc3c2=O)cc1 (stereo not given) the Potency was inconclusive: 56.2 µM [inhibitor, partial curve, poor fit].
In the case of O=C(O)c1ccc(C2CCCN(C(=O)CCCn3cncn3)C2)cc1 (stereo not given), the “activity change, negative = inhibition” value is reported as inactive: 69.3%.
For C#CCN1CC(N(C)CCOC(=O)c2cc3ccccc3[nH]2)CS1(=O)=O (stereo not given), the “activity change, negative = inhibition” value was inactive: -18.4%.
For COc1ccc(-c2nn(C)c3sc(C(=O)Nc4cc(OC)c(OC)c(OC)c4)cc23)cc1OC, the “activity change, negative = inhibition” value was inactive: -17.8%.
With CCn1cc(C(=O)OCc2ccccc2)c(=O)c2ccc(C)nc21 the Potency was inconclusive: 39.8 µM [inhibitor, partial curve, poor fit].
For COCCOC(=O)C1=C(C)NC(=O)NC1c1ccco1 (stereo not given), the Potency was inconclusive: 126 µM [inhibitor, single point].
COc1ccc(CCC(C)N2CCC(CO)(Cc3ccccc3)CC2)cc1 (stereo not given) was tested, and the Potency was inconclusive: 44.7 µM [inhibitor, partial curve, poor fit].
With COc1cccc(CN2CCCN(Cc3ccc(F)cc3)S2(=O)=O)c1 the Potency was inconclusive: 89.1 µM [inhibitor, partial curve, poor fit].
For CCCOc1ccc(C(=O)Nc2cc(-c3nc4ccccc4[nH]3)ccc2C)cc1, the Potency was inconclusive: 12.6 µM [inhibitor, partial curve].
COc1ccc(-c2ccc(C#N)c(SCC(=O)NCc3ccco3)n2)cc1OC was tested, and the Potency was inconclusive: 112 µM [inhibitor, single point].
For COc1ccc(C(=O)N2CCCC(c3nc(-c4cnccn4)no3)CCNC(=O)CC2)cn1 (stereo not given), the “activity change, negative = inhibition” value was inactive: 75.6%.
In the case of O=c1oc2ccccc2c(NCC2CCCCC2)c1NS(=O)(=O)c1ccc(Cl)cc1, the “activity change, negative = inhibition” value is reported as inactive: -13.1%.
Cc1ccc(-c2c3c(nc4sc5c(c24)CCC5)-c2cc(F)ccc2S(=O)(=O)C3)cc1 was tested, and the “activity change, negative = inhibition” value was inactive: 5.98%.
For CCCN1C(=O)/C(=C\C=C2/C=CN(CC)c3ccccc32)SC1=S, the Potency was inconclusive: 0.398 µM [inhibitor, full curve, poor fit].
